Patent publication US20240042032A1 (TENEOBIO, published 2024)
These are yes or no findings as the source states them, for the method shown. Some entries that bind do so weakly or less than the wild type.

By UniProt entry, the sequences of proteins in these tests, tags left out. Residues count along the entry.
UniProt P15391, residues 20-291: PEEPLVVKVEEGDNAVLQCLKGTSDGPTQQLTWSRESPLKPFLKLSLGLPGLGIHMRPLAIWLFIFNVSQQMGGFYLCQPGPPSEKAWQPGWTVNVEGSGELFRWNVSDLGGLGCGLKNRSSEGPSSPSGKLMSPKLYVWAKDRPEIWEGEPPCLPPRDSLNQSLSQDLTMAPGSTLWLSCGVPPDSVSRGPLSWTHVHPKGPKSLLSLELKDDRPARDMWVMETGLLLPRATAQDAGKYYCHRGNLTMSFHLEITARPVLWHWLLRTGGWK

Target: human CD19 protein (ELISA antigen) (human) (UniProt P15391)
Assay: ELISA on human CD19 protein

B1: anti-CD19 heavy chain-only antibody (UniAb) clone ID 370083 (antibody, V domains shown)
VH: QVQLVESGGGLVKPGGSLRLSCAASGFTFSDYYMSWIRQAPGKGLEWVSYMSSSGSTIYYADSVKGRFTISRDNAKNSLYLQMTSLRAEDTAVYYCARGGIAATGTWGQGTLVTVSS
notes: Heavy chain-only antibody with no light chain, tested as purified UniAb and detected with anti-human IgG; Only the VH is tied to the clone
  binding: binds

B2: anti-CD19 heavy chain-only antibody (UniAb) clone ID 370034 (antibody, V domains shown)
VH: QVQLVESGGGLVKPGGSLRLSCAASGFTFSDYYMSWIRQAPGKGLEWVSYMSSSGSTIYYADSVKGRFTISRDNAKKSLYLQMNSLRAEDTAVYYCARGGIAAAGTWGQGTLVTVSS
notes: Heavy chain-only antibody with no light chain, tested as purified UniAb and detected with anti-human IgG; Only the VH is tied to the clone; also called HCAb 370034
  binding: binds
